Data from paper PMC7987992.
These are yes or no findings as the source states them, for the method shown. In cells and extracts the contact can be indirect. Some entries that bind do so weakly or less than the wild type.

Chains of the proteins cited; added tags and fusions are not shown.
UniProt Q9JHS1: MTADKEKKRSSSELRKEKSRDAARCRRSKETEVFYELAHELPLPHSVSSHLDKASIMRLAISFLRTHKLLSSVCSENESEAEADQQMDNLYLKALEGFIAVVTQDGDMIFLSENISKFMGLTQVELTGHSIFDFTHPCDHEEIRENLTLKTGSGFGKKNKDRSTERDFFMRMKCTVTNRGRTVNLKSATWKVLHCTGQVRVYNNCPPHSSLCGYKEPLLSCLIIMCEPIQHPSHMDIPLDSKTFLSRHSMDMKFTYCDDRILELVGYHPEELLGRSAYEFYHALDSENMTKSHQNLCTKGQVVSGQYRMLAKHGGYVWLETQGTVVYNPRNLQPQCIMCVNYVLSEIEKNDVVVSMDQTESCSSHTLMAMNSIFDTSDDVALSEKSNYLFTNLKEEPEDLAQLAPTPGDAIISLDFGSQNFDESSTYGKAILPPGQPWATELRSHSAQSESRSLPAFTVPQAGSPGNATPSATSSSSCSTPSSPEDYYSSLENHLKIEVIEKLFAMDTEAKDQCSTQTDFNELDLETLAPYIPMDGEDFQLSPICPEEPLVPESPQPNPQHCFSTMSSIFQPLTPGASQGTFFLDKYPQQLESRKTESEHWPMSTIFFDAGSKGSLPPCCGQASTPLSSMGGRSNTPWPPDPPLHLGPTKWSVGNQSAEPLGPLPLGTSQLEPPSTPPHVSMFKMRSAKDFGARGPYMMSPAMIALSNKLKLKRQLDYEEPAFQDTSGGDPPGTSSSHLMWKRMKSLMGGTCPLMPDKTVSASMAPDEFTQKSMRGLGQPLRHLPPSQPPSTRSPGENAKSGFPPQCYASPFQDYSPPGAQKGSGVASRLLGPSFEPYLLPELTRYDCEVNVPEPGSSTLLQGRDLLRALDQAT

Target: hypoxia-inducible factor (HIF)-2α (rat (endogenous in NRK-49F)) (UniProt Q9JHS1)
Experiment: co-IP; NRK-49F cells treated with NMN or sirtinol for 24 h; total cell lysates immunoprecipitated with an anti-HIF-2α antibody (Pierce kit); immune complexes analysed by western blot

- binding: binds
B1: Sirtuin 1 (SIRT1) (enzyme, UniProt A0A0G2JZ79 1-741)
chain: MADEAALALQAGGSPSAAAAMEAASQPADEPLRKRPRRDGPGLGRSPGEPSAAAAAAAAAAGCEAASAAAPAALWREAAGAAAASAEREAPATAAAGDGDNGPGLRREPRAADDFDDDEGEEEDEAAAAAAAAIGYRDNLLLADEIITNGFHSCESDDDDRASHASSSDWTPRPRIGPYTFVQQHLMIGTDPRTILKDLLPETIPPPELDDMTLWQIVINILSEPPKRKKRKDINTIEDAVKLLQECKKIIVLTGAGVSVSCGIPDFRSRDGIYARLAVDFPDLPDPQAMFDIEYFRKDPRPFFKFAKEIYPGQFQPSLCHKFIALSDKEGKLLRNYTQNIDTLEQVAGIQRIIQCHGSFATASCLICKYKVDCEAVRGDIFNQVVPRCPRCPADEPLAIMKPEIVFFGENLPEQFHRAMKYDKDEVDLLIVIGSSLKVRPVALIPSSIPHEVPQILINREPLPHLHFDVELLGDCDVIINELCHRLGGEYAKLCCNPVKLSEITEKPPRTQKELVHLSELPPTPLHISEDSSSPERTVPQDSSVIATLVDQTIKNKVDDLEVSEPKSCVEEKSQEVQTYRNVESINVENPDFKAVGSSTGDKNERTSVAETVRKCWPNRLAKEQISKRLDGNQYLFVPPNRYIFHGAEVYSDSEDDALSSSSCGSNSDSGTCQSPSLEEPLEDESEIEEFYNGLEDDADRPECAGGSGADGGDQEAVNEAIAMKQELTDVNCTPDKSEHY
